These results are taken from paper doi:10.1101/2020.11.08.373522.

Sequences of proteins named here, by UniProt entry; tags and fusion partners are left off.
UniProt P06634: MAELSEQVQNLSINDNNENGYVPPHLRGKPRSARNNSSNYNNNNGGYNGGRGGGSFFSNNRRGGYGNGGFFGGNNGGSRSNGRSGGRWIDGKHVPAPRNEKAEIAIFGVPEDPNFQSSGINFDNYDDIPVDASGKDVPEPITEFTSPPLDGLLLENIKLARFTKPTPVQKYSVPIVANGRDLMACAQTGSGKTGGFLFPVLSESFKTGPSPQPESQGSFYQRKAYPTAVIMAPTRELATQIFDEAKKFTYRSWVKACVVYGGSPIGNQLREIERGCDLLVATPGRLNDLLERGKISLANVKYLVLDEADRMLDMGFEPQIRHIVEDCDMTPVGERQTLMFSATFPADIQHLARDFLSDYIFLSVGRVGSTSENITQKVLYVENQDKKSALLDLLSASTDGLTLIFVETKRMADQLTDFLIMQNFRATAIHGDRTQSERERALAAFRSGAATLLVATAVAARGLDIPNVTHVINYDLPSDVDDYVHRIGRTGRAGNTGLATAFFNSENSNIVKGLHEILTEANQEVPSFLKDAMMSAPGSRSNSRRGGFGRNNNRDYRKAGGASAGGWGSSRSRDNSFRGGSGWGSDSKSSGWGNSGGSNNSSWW

The chains are these.
B1: Sec65 (endogenous) (protein, UniProt P29478 1-273)
chain: MPRLEEIDDFNDIDDLDMELAELDPSLRTPIAPKITPKVVRSQDQENPAFLPGTNNNSNSNNNSSNEKEQLSFINPKTGKVERSEAISKKDLEEVKRFQVLYPCYFDINRSHKEGRRVPKELAVENPLAKTMADAVRELGILCIFEGEKCHPQDFGNPGRIRVLFKENGQLIGAATKFKGGKRQLMKAVGEYMKRHPTTIESLREIPYGPDFDNIEFKKIPRVKGFKMNEIVPLHSPFLMGHPMTKSVYETPKITAAEKSFKPPKNKYKVVRR
B2: SRP14 (endogenous) (protein, UniProt P38985 1-146)
chain: MANTGCLSPGAFLSKVPEFFQTANEKHITVRLTAKRLIEHDPVEGNLEFDSTNHPDYDVSKKASEISVSSRSDREYPLLIRMSYGSHDKKTKCSTVVKASELDQFWQEYSSVFKGGMQNLIKKKKKKSKNGTISKTGKKNKVAKKN
B3: SRP68 (endogenous) (protein, UniProt P38687 1-599)
chain: MVAYSPIIATYGNRAEQFLETDSDFAKYHAKLNKKLQHLRSRCHLVTKDTKKYSSKNKYGEINSEDYDNKTKLIGVLILLHAERDLALAETLKLRARQRGKLKKSEEKVLSTRLKKACKTADKLVNVTQNEQQWITRAQYLAFAKLVHSEYLINGKRFKRKDNAKISNNLALVFAALEHLKNLSLLAEEVVDNIVNKYQYSLKQYAGNLITTPEINNFIVERVQSDENKDDELVKLLLDNGFNMKKITTSTEDQKVTTNINWRSFNAKIIDAEVAQFLEQGLSIHPTQITQYTQRLSKLEKALDRHEFFIANHDDQDDIDEMVENSSENNQIILAYIKYNILLTSISRERDLFTHLWNQWLKLNTSLPSKLTKYKEMERIVKNLTKYLSDIMELPGVYSDDELLSQLDLCKLYFQLFLNTGCLSVLYQSKGRYMEALALYVDAYRRLENKLSEIESLDEILLPANLLSLNSVRSLQKRIENGGNSVITLAEYEKRNHGGSLGKYDLTVIEKLDSKKILPTDIQLKNLFPLKPKMLPIPSKPTLFDLAFNYITYDKQEPSASQVKDSVTETESISQTPISNEQTEGEPKKKRGFLGLFGR
B4: SRP21 (endogenous) (protein, UniProt P32342 1-167)
chain: MSVKPIDNYITNSVRLFEVNPSQTLFSISYKPPTQKTDTKVSFRTHNSHLSLNYKFTTNKSKDVSRLLSALGPRGVSITPGKIEKIAQSKKKNNKIKESSKKIKGKSIQDIVGLATLIVNTDVEKSDPAAKKTATEPKQKANAVQNNNGNSAASKKKKNKNKGKKKR

These are yes or no findings as the source states them, for the method shown. Binding seen in cells or lysates may run through a third protein. A yes stands for co-enrichment or nearness to the bait. Other partners may have been found.

In this assay the target is Ded1 (DEAD-box RNA helicase Ded1) (S. cerevisiae (endogenous in yeast)) (UniProt P06634). As to the kind of experiment: affinity purification with mass spectrometry.
In the case of B1, the binding result was “binds”.

As for B2, the binding entry is given as “binds”.

In the case of B3, the binding entry was “binds”. For the molecule B4, the binding result is given as “binds”.
